Measurements taken from article PMC5339705.
For at least one entry, the source does not settle the construct or the ends of the probe. For some of these results: Weaker means in comparison with the reference protein, sequence or condition of that experiment. For some of these results: At least one verdict rests on a figure or table, not on a statement of the authors. For some of these results: Where a protein sequence is shown, tags need not be part of it.

By UniProt entry, the sequences of proteins in these tests, tags left out.
UniProt O15527, whole entry: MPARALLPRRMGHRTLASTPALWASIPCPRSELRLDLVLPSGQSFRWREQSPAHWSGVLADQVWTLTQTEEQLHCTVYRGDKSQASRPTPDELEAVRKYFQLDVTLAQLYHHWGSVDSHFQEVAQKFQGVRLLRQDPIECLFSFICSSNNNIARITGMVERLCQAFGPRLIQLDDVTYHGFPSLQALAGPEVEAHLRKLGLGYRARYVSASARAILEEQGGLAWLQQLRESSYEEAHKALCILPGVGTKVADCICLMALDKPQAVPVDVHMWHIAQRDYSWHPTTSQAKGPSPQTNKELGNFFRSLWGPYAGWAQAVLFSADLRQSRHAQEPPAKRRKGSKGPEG
UniProt Q04206, whole entry: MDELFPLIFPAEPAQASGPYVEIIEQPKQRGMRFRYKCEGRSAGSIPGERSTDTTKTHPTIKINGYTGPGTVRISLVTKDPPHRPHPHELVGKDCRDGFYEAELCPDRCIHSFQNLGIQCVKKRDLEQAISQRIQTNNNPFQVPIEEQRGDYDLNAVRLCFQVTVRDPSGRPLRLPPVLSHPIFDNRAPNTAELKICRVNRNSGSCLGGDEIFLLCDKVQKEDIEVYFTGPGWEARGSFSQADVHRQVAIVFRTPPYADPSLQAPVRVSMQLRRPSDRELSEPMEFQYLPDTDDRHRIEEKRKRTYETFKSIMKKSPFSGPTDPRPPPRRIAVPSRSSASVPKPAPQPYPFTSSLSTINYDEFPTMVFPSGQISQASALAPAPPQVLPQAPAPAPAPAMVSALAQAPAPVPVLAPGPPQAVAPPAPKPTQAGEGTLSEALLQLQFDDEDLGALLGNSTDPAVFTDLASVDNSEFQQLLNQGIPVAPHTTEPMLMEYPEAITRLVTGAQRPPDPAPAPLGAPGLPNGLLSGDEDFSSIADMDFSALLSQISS

How the values were obtained:
Assay in all cases: EMSA
[1] = biological target: T1, p50 (NF-kB1) (UniProt P19838); settings: homodimer in p65/p50 mix, 10 mM Tris-HCl pH 8.0, 5 mM NaCl, 1 mM EDTA, 1 mM DTT, 0.1 mg/ml BSA, 0.1 µg/µl poly(dI-dC) (stated for NE reactions), 10 fmol probe, 10 µl, RT 5-10 min, commercial protein, label: 5' biotin on strand 2
T1 sequence (looked up, limits assumed): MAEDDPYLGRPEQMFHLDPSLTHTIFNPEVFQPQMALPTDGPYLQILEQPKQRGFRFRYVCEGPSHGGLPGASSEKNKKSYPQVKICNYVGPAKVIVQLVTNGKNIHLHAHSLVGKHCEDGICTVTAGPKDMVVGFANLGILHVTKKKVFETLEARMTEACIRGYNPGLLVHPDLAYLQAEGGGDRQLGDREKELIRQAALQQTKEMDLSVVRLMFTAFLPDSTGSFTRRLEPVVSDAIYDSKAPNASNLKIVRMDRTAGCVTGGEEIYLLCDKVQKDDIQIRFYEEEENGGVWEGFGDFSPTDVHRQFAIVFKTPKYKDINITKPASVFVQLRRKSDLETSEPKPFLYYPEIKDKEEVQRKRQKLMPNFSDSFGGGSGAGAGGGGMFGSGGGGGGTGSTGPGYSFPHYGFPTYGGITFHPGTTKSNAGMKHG

[2] = biological target: OGG1 (UniProt O15527); settings: shift only with higher OGG1 amounts (data not shown), 10 mM Tris-HCl pH 8.0, 5 mM NaCl, 1 mM EDTA, 1 mM DTT, 0.1 mg/ml BSA, 0.1 µg/µl poly(dI-dC) (stated for NE reactions), 10 fmol probe, 10 µl, RT 5-10 min, commercial protein, label: 5' biotin on strand 2
[3] = system: p65 (RelA) + p50 (NF-kB1); settings: 10 mM Tris-HCl pH 8.0, 5 mM NaCl, 1 mM EDTA, 1 mM DTT, 0.1 mg/ml BSA, 0.1 µg/µl poly(dI-dC) (stated for NE reactions), 10 fmol probe, 10 µl, RT 5-10 min, commercial protein, label: 5' biotin on strand 2
[4] = biological target: p65 (RelA) (UniProt Q04206); settings: p65 alone, shift only at 15 ng/sample; 8-oxoG at strand 2 position 23 (opposite C11 of strand 1); 10 mM Tris-HCl pH 8.0, 5 mM NaCl, 1 mM EDTA, 1 mM DTT, 0.1 mg/ml BSA, 0.1 µg/µl poly(dI-dC) (stated for NE reactions), 10 fmol probe, 10 µl, RT 5-10 min; commercial protein; label: 5' biotin on strand 2
[5] = no OGG1, 8-oxoG at strand 1 position 22

Sequence: TGAGGGGACCCTGAGCTCAGGGAATTTCCCTGG (double strand) [κB2-G4]
- binding result ([1]; no OGG1, 8-oxoG at strand 1 position 7): binds
- binding result ([2]; 8-oxoG at strand 1 position 7): binds more weakly

Sequence: TGAGGGGACCCTGAGCTCAGGGAATTTCCCTGG (double strand) [κB2-Wt]
- binding result ([3]; with OGG1 4 ng, stronger than NF-kB alone): binds

Sequence: TGAGGGGACCCTGAGCTCAGGGAATTTCCCTGG (double strand) [κB2-G2]
- binding result [3, 5]: binds more weakly
- binding result ([3]; with OGG1 4 ng, decreased vs Wt, 8-oxoG at strand 1 position 22): binds more weakly
- binding result [1, 5]: binds

Sequence: TGAGGGGACCCTGAGCTCAGGGAATTTCCCTGG (double strand) [κB2-G6]
- binding result [4]: binds more weakly

Sequence: TTCCCTGGTCCCCGGGCTTTTCCAGACATCG (double strand) [κB1-G1]
- binding result ([3]; no OGG1, increased by OGG1, 8-oxoG at strand 1 position 14): binds
- binding result ([1]; increased by OGG1, 8-oxoG at strand 1 position 14): binds

Sequence: TGAGGGGACCCTGAGCTCAGGGAATTTCCCTGG (double strand) [κB2-G5]
- binding result ([3]; with OGG1 4 ng, stronger than NF-kB alone, 8-oxoG at strand 2 position 4 (opposite C30 of strand 1)): binds
- binding result ([1]; no OGG1, 8-oxoG at strand 2 position 4 (opposite C30 of strand 1)): binds
- binding result ([2]; 8-oxoG at strand 2 position 4 (opposite C30 of strand 1)): binds more weakly

Sequence: TTCCCTGGTCCCCGGGCTTTTCCAGACATCG (double strand) [κB1-G3]
- binding result ([3]; no OGG1, 8-oxoG at strand 2 position 27 (opposite C5 of strand 1)): binds
- binding result ([1]; increased by OGG1, 8-oxoG at strand 2 position 27 (opposite C5 of strand 1)): binds

Sequence: TTCCCTGGTCCCCGGGCTTTTCCAGACATCG (double strand) [κB1-Wt]
- binding result ([3]; no OGG1, increased by OGG1): binds
- binding result ([1]; increased by OGG1): binds

Sequence: TTCCCTGGTCCCCGGGCTTTTCCAGACATCG (double strand) [κB1-G2]
- binding result ([3]; no OGG1, increased by OGG1, 8-oxoG at strand 2 position 19 (opposite C13 of strand 1)): binds
- binding result ([1]; increased by OGG1, 8-oxoG at strand 2 position 19 (opposite C13 of strand 1)): binds

Sequence: TGAGGGGACCCTGAGCTCAGGGAATTTCCCTGG (double strand) [κB2-G1]
- binding result ([3]; with OGG1 4 ng, stronger than NF-kB alone, 8-oxoG at strand 1 position 20): binds
- binding result ([1]; no OGG1, 8-oxoG at strand 1 position 20): binds

Sequence: TGAGGGGACCCTGAGCTCAGGGAATTTCCCTGG (double strand) [κB2-G3]
- binding result ([1]; no OGG1, 8-oxoG at strand 1 position 4 (number label read as following the base)): binds
- binding result ([2]; 8-oxoG at strand 1 position 4 (number label read as following the base)): binds more weakly
